Laboratory results reported in PubChem BioAssay (NCATS).
Listed are the inconclusive results; actives and inactives stand elsewhere. The call rests on the fitted dose curve; in most records, active means well fitted cell-killing curve with a large enough effect; inconclusive means small, poorly fitted or top-dose-only effect, or effect the other way; inactive means no such curve, though single readings can be large or run the other way.
Potency means the concentration at half of the fitted maximal effect.

Assay: Viability qHTS for spleen associated tyrosine kinase inhibitor (SYKi) drug resistant MV4-11 cells (AID 1963824); further: nearly all actives have a fitted effect of over 35% in size
Conditions: SYKi-resistant MV4-11 viability, CellTiter-Glo, 72 h
How it was run: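 SYK inhibitor-resistant MV4-11 AML cells, 500 per well, added to predispensed compounds and incubated 72 hr at 37 C, 5% CO2. Viability measured by CellTiter-Glo luminescence after 10 min at room temperature.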
In the case of O=[N+]([O-])c1cccc([N+](=O)[O-])c1, the Potency is reported as inconclusive: 22.6 µM.
In the case of CCOP(=O)(CC)Oc1ccc([N+](=O)[O-])cc1 (stereo not drawn), the Potency is reported as inconclusive: 13 µM.
With Cc1cccc([N+](=O)[O-])c1[N+](=O)[O-] the Potency was inconclusive: 0.0013 µM.
